Laboratory results published in PubChem BioAssay AID330 (DTP/NCI, 2004).
The list is a part of this screen's results and no random one: it gathers tests that were run many times, whatever their T/C, doses with no T/C, and many T/C values between a quarter and a half above the control. Further doses and runs are listed elsewhere. T/C: endpoint of the treated group in % of that of the vehicle group. Some doses have a count of surviving animals in place of a T/C: the source holds a T/C of zero for them, seemingly a mark for toxic or unscored doses. Some doses without a T/C left all or most animals alive at the check, yet need not have been tolerated: the source hardly ever lists a survival T/C far under the control, and the zero likely stands for such cases as well. Survivors were counted at the toxicity check, usually on the fifth day, unless a day is given; later deaths do not show. Schedule codes are those of the source, taken here to give the interval after Q, in days (D) or hours (H), and the number of doses after X. Some molecules as drawn cover several salts, stereoisomers or complexes of the source; a dose is that of the sample tested. For survival time, the PubChem record calls one and a half times the control and up active, and a quarter to a half above the control has no call in these data; cut-offs in other NCI protocols can differ. Some T/C values carry the count of animals alive at the toxicity check (mostly the fifth day); where none is given, no animal had died by that day. Some entries hold several experiments; their values stand side by side, smallest first. Counts like (3×) count equal records among those shown.

Test system: P388 leukemia ip, CD2F1 mice, survival T/C
Test: NCI In Vivo Anticancer Drug Screen. Data for tumor model P388 Leukemia (intraperitoneal) in CD2F1 (CDF1) mice
Settings: T/C endpoint: median survival time, higher T/C = longer survival

With `COc1cc(NS(C)(=O)=O)ccc1Nc1c2ccccc2nc2ccccc12` the T/C (dose: 0.25 mg/kg/injection, schedule: Q01DX009 (ip), vehicle: other) was 146 % of control, the T/C (dose: 1.0 mg/kg/injection, schedule: Q01DX005 (ip), vehicle: other) was 143 and 145 % of control and the T/C (dose: 1.0 mg/kg/injection, schedule: Q01DX009 (ip), vehicle: other) was 144 % of control. The T/C (dose: 1.0 mg/kg/injection, schedule: Q04DX003 (ip), vehicle: other) was 132 and 138 % of control, the T/C (dose: 1.25 mg/kg/injection, schedule: Q04DX003 (ip), vehicle: other) was 131 % of control and the T/C (dose: 1.56 mg/kg/injection, schedule: Q04DX003 (ip), vehicle: other) was 143 and 145 % of control. For the same compound, the T/C (dose: 2.0 mg/kg/injection, schedule: Q01DX005 (iv), vehicle: other) was 136 % of control, the T/C (dose: 2.33 mg/kg/injection, schedule: Q01DX001 (ip), vehicle: other) was 134 % of control and the T/C (dose: 2.5 mg/kg/injection, schedule: Q04DX002 (ip), vehicle: other, evaluated on day 30) was 135, 138, 139, 140, 141, 144, 145 (2×), 146, 147, 150 (3×), 151 (2×), 152, 153, 154, 157, 158, 159, 160 (4×), 168, 170 % of control. For the same compound, the T/C (dose: 2.5 mg/kg/injection, schedule: Q04DX002 (ip), vehicle: other, evaluated on day 35) was 152 and 169 % of control, the T/C (dose: 2.5 mg/kg/injection, schedule: Q04DX002 (ip), vehicle: other, evaluated on day 50) was 161 % of control and the T/C (dose: 2.5 mg/kg/injection, schedule: Q04DX002 (ip), vehicle: saline with Tween-80) was 145, 153, 163, 166, 172 % of control. For the same compound, the T/C (dose: 2.5 mg/kg/injection, schedule: Q04DX003 (ip), vehicle: other, evaluated on day 5) was 134 % of control, the T/C (dose: 2.5 mg/kg/injection, schedule: Q04DX003 (ip), vehicle: other, evaluated on day 30) was 137 % of control and the T/C (dose: 2.59 mg/kg/injection, schedule: Q04DX002 (ip), vehicle: other) was 154, 159, 161, 165 % of control. For the same compound, the T/C (dose: 2.59 mg/kg/injection, schedule: Q04DX003 (ip), vehicle: other, evaluated on day 40) was 165 % of control, the T/C (dose: 2.59 mg/kg/injection, schedule: Q04DX003 (ip), vehicle: other, evaluated on day 45) was 122, 136, 142, 147, 154, 155, 158, 160, 161, 170, 183 % of control and the T/C (dose: 2.59 mg/kg/injection, schedule: Q04DX003 (ip), vehicle: other, evaluated on day 60) was 145 % of control. The T/C (dose: 3.89 mg/kg/injection, schedule: Q01DX001 (ip), vehicle: other) was 136 % of control, the T/C (dose: 4.0 mg/kg/injection, schedule: Q04DX003 (ip), vehicle: other) was 131 % of control and the T/C (dose: 4.32 mg/kg/injection, schedule: Q04DX002 (ip), vehicle: other) was 158 (2×), 172, 175 % of control. The T/C (dose: 4.32 mg/kg/injection, schedule: Q04DX003 (ip), vehicle: other, evaluated on day 40) was 184 % of control, the T/C (dose: 4.32 mg/kg/injection, schedule: Q04DX003 (ip), vehicle: other, evaluated on day 45) was 147, 155, 156, 158, 162 (2×), 169, 170, 171 (2×), 193 % of control and the T/C (dose: 4.32 mg/kg/injection, schedule: Q04DX003 (ip), vehicle: other, evaluated on day 60) was 167 % of control. The T/C (dose: 5.0 mg/kg/injection, schedule: Q04DX002 (ip), vehicle: other, evaluated on day 30) was 151, 152, 153 [5 of 6 alive], 158, 160 (4×), 161 (2×), 162 (2×), 163, 164, 168, 169 (3×), 172 (2×), 173, 174, 175, 178, 180, 185, 218 % of control, the T/C (dose: 5.0 mg/kg/injection, schedule: Q04DX002 (ip), vehicle: other, evaluated on day 35) was 161 and 189 % of control and the T/C (dose: 5.0 mg/kg/injection, schedule: Q04DX002 (ip), vehicle: other, evaluated on day 50) was 174 % of control. For the same compound, the T/C (dose: 5.0 mg/kg/injection, schedule: Q04DX002 (ip), vehicle: saline with Tween-80) was 155, 159, 163, 172, 183 % of control, the T/C (dose: 6.48 mg/kg/injection, schedule: Q01DX001 (ip), vehicle: other) was 145 % of control and the survivor count (dose: 6.67 mg/kg/injection, schedule: Q01DX009 (ip), vehicle: other) was 8 of 8. For the same compound, the T/C (dose: 7.2 mg/kg/injection, schedule: Q04DX002 (ip), vehicle: other, evaluated on day 30) was 208 % of control, the T/C (dose: 7.2 mg/kg/injection, schedule: Q04DX002 (ip), vehicle: other, evaluated on day 45) was 178, 186, 190, 204 % of control and the T/C (dose: 7.2 mg/kg/injection, schedule: Q04DX003 (ip), vehicle: other, evaluated on day 40) was 194 % of control. For the same compound, the T/C (dose: 7.2 mg/kg/injection, schedule: Q04DX003 (ip), vehicle: other, evaluated on day 45) was 165, 178, 179, 181, 186 [7 of 8 alive], 187, 188 (3×), 189, 236 % of control, the T/C (dose: 7.2 mg/kg/injection, schedule: Q04DX003 (ip), vehicle: other, evaluated on day 60) was 168 % of control and the survivor count (dose: 8.0 mg/kg/injection, schedule: Q01DX005 (ip), vehicle: other) was 6 of 6. The survivor count (dose: 8.0 mg/kg/injection, schedule: Q01DX005 (iv), vehicle: other) was 6 of 6, the T/C (dose: 8.0 mg/kg/injection, schedule: Q01DX005 (oral), vehicle: other) was 139 % of control and the T/C (dose: 8.0 mg/kg/injection, schedule: Q04DX003 (oral), vehicle: other) was 126 % of control. For the same compound, the T/C (dose: 9.0 mg/kg/injection, schedule: Q04DX003 (ip), vehicle: saline with Tween-80, evaluated on day 44) was 189 % of control, the T/C (dose: 9.0 mg/kg/injection, schedule: Q04DX003 (ip), vehicle: saline with Tween-80, evaluated on day 45) was 152, 167, 171, 173 % of control and the T/C (dose: 9.0 mg/kg/injection, schedule: Q04DX003 (ip), vehicle: saline with Tween-80, evaluated on day 60) was 166 and 194 % of control (2×). The T/C (dose: 10.0 mg/kg/injection, schedule: Q04DX002 (ip), vehicle: other, evaluated on day 30) was 163 [5 of 6 alive], 166, 167, 168, 174, 177 (2×), 178, 179, 180 (2×), 181, 182, 188, 190 (2×), 191, 195, 200, 201, 201 [5 of 6 alive], 203 (2×), 207, 208, 220, 222 % of control, the T/C (dose: 10.0 mg/kg/injection, schedule: Q04DX002 (ip), vehicle: other, evaluated on day 35) was 189 and 213 % of control and the T/C (dose: 10.0 mg/kg/injection, schedule: Q04DX002 (ip), vehicle: other, evaluated on day 50) was 207 % of control. For the same compound, the T/C (dose: 10.0 mg/kg/injection, schedule: Q04DX002 (ip), vehicle: saline with Tween-80) was 163, 168, 175, 190, 201 % of control, the T/C (dose: 10.0 mg/kg/injection, schedule: Q04DX003 (ip), vehicle: saline with Tween-80, evaluated on day 5) was 178 and 292 % of control and the T/C (dose: 10.0 mg/kg/injection, schedule: Q04DX003 (ip), vehicle: saline with Tween-80, evaluated on day 7) was 166 % of control. For the same compound, the T/C (dose: 10.0 mg/kg/injection, schedule: Q04DX003 (ip), vehicle: saline with Tween-80, evaluated on day 60) was 213, 214, 220 % of control, the T/C (dose: 12.0 mg/kg/injection, schedule: Q04DX002 (ip), vehicle: other, evaluated on day 30) was 224 % of control and the T/C (dose: 12.0 mg/kg/injection, schedule: Q04DX002 (ip), vehicle: other, evaluated on day 45) was 166 [7 of 8 alive], 188, 200 [7 of 8 alive], 215 % of control. For the same compound, the T/C (dose: 12.0 mg/kg/injection, schedule: Q04DX003 (ip), vehicle: other, evaluated on day 40) was 240 % of control, the T/C (dose: 12.0 mg/kg/injection, schedule: Q04DX003 (ip), vehicle: other, evaluated on day 45) was 196, 198 (2×), 200 (2×), 201, 209, 216, 226, 237, 269 % of control and the T/C (dose: 12.0 mg/kg/injection, schedule: Q04DX003 (ip), vehicle: other, evaluated on day 60) was 203 % of control. The T/C (dose: 12.0 mg/kg/injection, schedule: Q04DX003 (ip), vehicle: saline with Tween-80, evaluated on day 5) was 191 and 264 % of control and the T/C (dose: 12.0 mg/kg/injection, schedule: Q04DX003 (ip), vehicle: saline with Tween-80, evaluated on day 30) was 218 % of control.
